Laboratory results as given in paper PMC12120113.
These are yes or no findings as the source states them, for the method shown. Binding seen in cells or lysates may run through a third protein. Some binding calls cover weakened binding; strength is not graded here.

Protein sequences, listed by entry. Tags and fused reporters are not part of them.
UniProt P46937: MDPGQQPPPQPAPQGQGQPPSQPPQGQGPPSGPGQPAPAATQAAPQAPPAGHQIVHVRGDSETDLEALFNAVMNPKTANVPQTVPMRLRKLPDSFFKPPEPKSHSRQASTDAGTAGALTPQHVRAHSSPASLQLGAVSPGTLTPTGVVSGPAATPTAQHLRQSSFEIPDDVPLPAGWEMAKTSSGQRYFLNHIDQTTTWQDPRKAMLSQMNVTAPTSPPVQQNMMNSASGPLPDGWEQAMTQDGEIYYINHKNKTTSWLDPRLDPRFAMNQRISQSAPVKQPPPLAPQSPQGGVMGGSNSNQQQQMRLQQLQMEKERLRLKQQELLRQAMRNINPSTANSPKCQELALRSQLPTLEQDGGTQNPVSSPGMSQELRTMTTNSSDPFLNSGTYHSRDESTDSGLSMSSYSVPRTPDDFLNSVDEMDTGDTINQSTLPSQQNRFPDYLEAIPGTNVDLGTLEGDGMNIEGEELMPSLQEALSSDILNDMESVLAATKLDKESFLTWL

What was measured:
[1] = target: T1, VCPIP1 wild type, as used in the domain-mapping Co-IP (Fig. 5G, H) (UniProt Q96JH7); assay: co-IP; wild-type and truncated VCPIP1 and YAP constructs expressed in cells (cell line and precipitating antibody not stated); western blot
T1 sequence: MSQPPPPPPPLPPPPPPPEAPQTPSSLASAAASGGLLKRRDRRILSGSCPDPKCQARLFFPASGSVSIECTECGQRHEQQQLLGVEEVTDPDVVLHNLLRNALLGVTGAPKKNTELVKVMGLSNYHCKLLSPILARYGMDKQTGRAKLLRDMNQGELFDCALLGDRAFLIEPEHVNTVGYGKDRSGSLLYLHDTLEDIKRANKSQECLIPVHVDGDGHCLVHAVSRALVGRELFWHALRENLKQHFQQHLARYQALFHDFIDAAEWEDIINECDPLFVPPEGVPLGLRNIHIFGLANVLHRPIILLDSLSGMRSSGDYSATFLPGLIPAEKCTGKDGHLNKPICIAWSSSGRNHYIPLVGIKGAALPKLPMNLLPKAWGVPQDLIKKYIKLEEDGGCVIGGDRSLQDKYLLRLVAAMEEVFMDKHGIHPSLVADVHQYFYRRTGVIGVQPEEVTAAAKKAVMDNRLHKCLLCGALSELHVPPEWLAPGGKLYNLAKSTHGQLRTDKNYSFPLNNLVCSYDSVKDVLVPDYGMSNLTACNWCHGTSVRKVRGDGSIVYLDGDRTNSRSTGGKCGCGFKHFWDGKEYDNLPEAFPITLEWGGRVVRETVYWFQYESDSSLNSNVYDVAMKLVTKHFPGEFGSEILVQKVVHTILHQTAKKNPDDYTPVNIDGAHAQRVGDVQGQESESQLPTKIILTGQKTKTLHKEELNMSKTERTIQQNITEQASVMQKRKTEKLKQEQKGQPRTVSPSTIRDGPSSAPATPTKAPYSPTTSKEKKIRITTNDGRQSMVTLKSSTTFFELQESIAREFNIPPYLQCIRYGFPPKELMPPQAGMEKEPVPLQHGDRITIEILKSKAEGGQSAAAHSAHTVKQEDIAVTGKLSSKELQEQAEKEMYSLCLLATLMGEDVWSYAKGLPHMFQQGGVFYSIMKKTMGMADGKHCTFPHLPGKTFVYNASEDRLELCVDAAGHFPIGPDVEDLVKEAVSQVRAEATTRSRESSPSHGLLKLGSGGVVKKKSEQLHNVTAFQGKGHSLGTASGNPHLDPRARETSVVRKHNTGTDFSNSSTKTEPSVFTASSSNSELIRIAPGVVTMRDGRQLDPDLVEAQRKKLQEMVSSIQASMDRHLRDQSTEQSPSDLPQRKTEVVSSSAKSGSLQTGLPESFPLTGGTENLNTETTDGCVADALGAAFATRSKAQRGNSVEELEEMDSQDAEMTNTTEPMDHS

[2] = target: T2, VCPIP1 (valosin-containing protein-interacting protein 1), endogenous in PANC-1 cells (human (endogenous in PANC-1)) (UniProt Q96JH7); assay: co-IP; endogenous proteins in PANC-1 lysate; immunoprecipitation with anti-VCPIP1 or anti-YAP antibody or IgG and protein A/G at 4 °C overnight, five washes with lysis buffer, western blot
T2 sequence: T1 sequence

binding [1] | binding [2] | Substance
binds |  | YAP wild type, as used in the domain-mapping Co-IP (Fig. 5G, H) (from UniProt P46937 1-504)
 | binds | YAP, endogenous in PANC-1 cells (from UniProt P46937 1-504)
